Experimental data: paper PMC6302136, “Quantitative Chemotherapeutic Profiling of Gynecologic Cancer Cell Lines Using Approved Drugs and Bioactive Compounds^” (Translational Oncology, 2018)

Tested on: HEK 293T cells
Settings: this screen, qHTS curve class

| Compound | Curve Class (HEK 293T toxicity) |
| --- | --- |
| Cc1[nH]c2ccccc2c1CCNCc1ccc(/C=C/C(=O)NO)cc1 [Panobinostat] | −1.17 |
| COc1ccc(-c2ccc3ncc4c(c3c2)n(-c2ccc(N3CCNCC3)c(C(F)(F)F)c2)c(=O)n4C)cn1 [NVP-BGT226] | −1.1 |
| O=C(CCCCCCC(=O)Nc1ccccc1)NO [Vorinostat] | −1.93 |
| Cc1csc(NC(=O)CSc2nc3c(c(C(F)(F)F)c2C#N)CCC3)n1 [Irestatin 9389] | −1.1 |
| CCN(CC)Cc1ccc2cc(COC(=O)Nc3ccc(C(=O)NO)cc3)ccc2c1 [Givinostat] | −1.17 |
| COc1cc(N2CCC(N3CCN(C)CC3)CC2)ccc1Nc1ncc(Cl)c(Nc2ccccc2S(=O)(=O)C(C)C)n1 [NVP-TAE684] | −2.1 |
